Data published in article PMC6393709.
These are yes or no findings as the source states them, for the method shown. Binding seen in cells or lysates may run through a third protein. A yes stands for co-enrichment or nearness to the bait. Other partners may have been found.

The chains behind the UniProt entries cited, without tags or fusion partners.
UniProt P09874: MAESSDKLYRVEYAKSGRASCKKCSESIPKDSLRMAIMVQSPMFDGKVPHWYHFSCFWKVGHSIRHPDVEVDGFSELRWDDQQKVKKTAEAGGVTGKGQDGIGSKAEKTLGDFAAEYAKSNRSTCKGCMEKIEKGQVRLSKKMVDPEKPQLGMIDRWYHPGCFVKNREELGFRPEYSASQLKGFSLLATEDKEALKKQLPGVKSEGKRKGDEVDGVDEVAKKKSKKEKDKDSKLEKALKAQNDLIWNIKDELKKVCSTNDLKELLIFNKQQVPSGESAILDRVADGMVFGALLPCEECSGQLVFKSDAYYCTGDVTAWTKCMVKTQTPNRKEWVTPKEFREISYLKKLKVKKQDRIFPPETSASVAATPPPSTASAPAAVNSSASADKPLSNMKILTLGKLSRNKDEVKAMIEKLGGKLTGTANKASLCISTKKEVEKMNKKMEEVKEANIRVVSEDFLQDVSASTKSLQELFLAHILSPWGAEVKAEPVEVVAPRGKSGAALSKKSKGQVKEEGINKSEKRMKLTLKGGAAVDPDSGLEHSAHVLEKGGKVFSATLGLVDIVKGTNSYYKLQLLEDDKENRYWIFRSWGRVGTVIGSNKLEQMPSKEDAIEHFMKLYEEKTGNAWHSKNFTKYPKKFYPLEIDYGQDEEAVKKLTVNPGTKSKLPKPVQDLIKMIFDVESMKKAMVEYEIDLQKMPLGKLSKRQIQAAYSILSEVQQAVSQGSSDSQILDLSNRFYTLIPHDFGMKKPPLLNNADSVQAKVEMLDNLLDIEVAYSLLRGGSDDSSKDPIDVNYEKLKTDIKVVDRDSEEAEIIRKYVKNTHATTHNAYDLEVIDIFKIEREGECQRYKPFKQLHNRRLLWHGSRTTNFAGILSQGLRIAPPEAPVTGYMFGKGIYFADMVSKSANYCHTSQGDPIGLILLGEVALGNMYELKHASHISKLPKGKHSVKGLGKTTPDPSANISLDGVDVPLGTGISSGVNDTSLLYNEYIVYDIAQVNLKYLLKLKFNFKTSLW

Target: T1, BCR (human (endogenous in K562)) (UniProt P11274)
T1 sequence: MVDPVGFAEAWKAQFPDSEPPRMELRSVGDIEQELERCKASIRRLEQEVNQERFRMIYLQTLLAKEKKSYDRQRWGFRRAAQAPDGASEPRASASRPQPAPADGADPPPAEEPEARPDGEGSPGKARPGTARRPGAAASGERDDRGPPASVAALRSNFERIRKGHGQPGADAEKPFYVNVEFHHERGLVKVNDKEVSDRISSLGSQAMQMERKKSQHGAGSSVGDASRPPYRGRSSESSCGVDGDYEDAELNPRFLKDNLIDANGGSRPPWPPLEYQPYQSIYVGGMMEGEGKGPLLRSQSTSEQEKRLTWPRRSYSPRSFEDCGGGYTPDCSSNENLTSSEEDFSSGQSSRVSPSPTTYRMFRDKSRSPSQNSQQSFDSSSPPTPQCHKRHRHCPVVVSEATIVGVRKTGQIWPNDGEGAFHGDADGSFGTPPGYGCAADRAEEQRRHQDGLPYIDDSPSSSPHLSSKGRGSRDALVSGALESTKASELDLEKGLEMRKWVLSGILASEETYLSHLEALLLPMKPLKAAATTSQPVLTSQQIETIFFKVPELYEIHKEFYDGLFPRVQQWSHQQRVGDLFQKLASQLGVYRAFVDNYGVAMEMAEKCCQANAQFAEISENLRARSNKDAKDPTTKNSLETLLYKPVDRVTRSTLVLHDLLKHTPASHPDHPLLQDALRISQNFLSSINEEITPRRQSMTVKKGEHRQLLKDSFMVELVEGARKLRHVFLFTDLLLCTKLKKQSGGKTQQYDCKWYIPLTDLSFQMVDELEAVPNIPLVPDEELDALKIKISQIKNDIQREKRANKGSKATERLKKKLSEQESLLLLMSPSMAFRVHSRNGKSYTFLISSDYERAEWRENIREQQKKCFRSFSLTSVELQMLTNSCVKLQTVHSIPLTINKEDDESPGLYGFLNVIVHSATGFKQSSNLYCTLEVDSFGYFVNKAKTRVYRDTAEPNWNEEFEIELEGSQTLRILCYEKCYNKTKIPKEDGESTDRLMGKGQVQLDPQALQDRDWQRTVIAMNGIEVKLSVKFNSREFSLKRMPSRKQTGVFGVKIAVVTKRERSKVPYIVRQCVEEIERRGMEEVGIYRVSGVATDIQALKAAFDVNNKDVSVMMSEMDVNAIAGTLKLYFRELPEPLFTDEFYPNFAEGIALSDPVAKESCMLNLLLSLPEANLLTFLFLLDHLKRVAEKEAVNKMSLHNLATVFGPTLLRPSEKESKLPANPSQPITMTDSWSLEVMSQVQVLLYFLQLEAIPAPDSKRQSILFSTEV
Test: affinity purification with mass spectrometry; anti-FLAG affinity purification from K562-Flag PPFIA1 cells and anti-BCR IP from K562 cells; IP products separated by SDS-PAGE and analysed by mass spectrometry

Substance: PARP1 (from UniProt P09874 1-1014)
- binding: binds
